PubChem BioAssay AID1224830, NIAID – 2016

Screen: 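Host factors that control LPS-induced TNF expression in human macrophages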 (primary screen)
Cell system: human THP-1 monocytic leukaemia cells, TNF dual-luciferase reporter clone, PMA-differentiated to macrophage-like cells
Reagent: siRNA pool against human genes, 50 nM
Timing: LPS for 4 h, given about 3 days after siRNA transfection
Challenge: bacterial LPS (TLR4 ligand), 10 ng/ml
Detection: 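TNF firefly reporter luminescence divided by renilla, normalised to the plate median, then turned into a robust z-score for each replicate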
Scale: TNF reporter robust z-score: higher = stronger TNF reporter response to LPS
Rule for the call: 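Each well counts as active if its z-score is over 2.8 or under -1.5; controls are left without a call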
The whole screen tested about 18,000 reagents; below is a random part of them. About 2,900 of them (16%) were called active. 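Calls are made per well; low scores hint the gene aids the LPS response, high scores that it dampens it.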 Reagents against one gene are numbered here. Repeated entries: four replicate wells of each siRNA pool. Reagent sequences are not shown.

no.	Target gene	pool no.	TNF reporter robust z-score	call
1	LAPTM4A (GeneID 9741)	1	0.14	inactive
2	LAPTM4A (GeneID 9741)	1	0.43	inactive
3	LAPTM4A (GeneID 9741)	1	-1.07	inactive
4	LAPTM4A (GeneID 9741)	1	-0.66	inactive
5	PLA1A (GeneID 51365)	1	0.59	inactive
6	PLA1A (GeneID 51365)	1	1.21	inactive
7	PLA1A (GeneID 51365)	1	1.67	inactive
8	TRPM6 (GeneID 140803)	1	0.83	inactive
9	TRPM6 (GeneID 140803)	1	-0.08	inactive
10	TRPM6 (GeneID 140803)	1	0.7	inactive
11	TRPM6 (GeneID 140803)	1	1.42	inactive
12	GSDME (GeneID 1687)	1	0.41	inactive
13	GSDME (GeneID 1687)	1	0.98	inactive
14	GSDME (GeneID 1687)	1	0.08	inactive
15	GSDME (GeneID 1687)	1	1.07	inactive
16	POLR2F (GeneID 5435)	1	-1.86	active
17	POLR2F (GeneID 5435)	1	-1.79	active
18	POLR2F (GeneID 5435)	1	-1.76	active
19	POLR2F (GeneID 5435)	1	-1.23	inactive
20	NID2 (GeneID 22795)	1	1.57	inactive
21	NID2 (GeneID 22795)	1	2.32	inactive
22	NID2 (GeneID 22795)	1	-0.78	inactive
23	NID2 (GeneID 22795)	1	-0.09	inactive
24	HSFY2 (GeneID 159119)	1	0.98	inactive
25	HSFY2 (GeneID 159119)	1	3.19	active
26	HSFY2 (GeneID 159119)	1	3.97	active
27	HSFY2 (GeneID 159119)	1	1.8	inactive
28	PSMF1 (GeneID 9491)	1	-0.76	inactive
29	PSMF1 (GeneID 9491)	1	-0.86	inactive
30	PSMF1 (GeneID 9491)	1	-1.13	inactive
31	PSMF1 (GeneID 9491)	1	-0.26	inactive
32	ALMS1 (GeneID 7840)	1	-1.86	active
33	ALMS1 (GeneID 7840)	1	-1.6	active
34	ALMS1 (GeneID 7840)	1	-1.33	inactive
35	ALMS1 (GeneID 7840)	1	-1.55	active
36	VIPR2 (GeneID 7434)	1	-0.3	inactive
37	VIPR2 (GeneID 7434)	1	-0.42	inactive
38	VIPR2 (GeneID 7434)	1	0.36	inactive
39	VIPR2 (GeneID 7434)	1	0.16	inactive
40	TMX4 (GeneID 56255)	1	-0.49	inactive
41	TMX4 (GeneID 56255)	1	0.4	inactive
42	TMX4 (GeneID 56255)	1	0.53	inactive
43	TMX4 (GeneID 56255)	1	0.74	inactive
44	OR13C4 (GeneID 138804)	1	0.73	inactive
45	OR13C4 (GeneID 138804)	1	-0.76	inactive
46	OR13C4 (GeneID 138804)	1	-0.46	inactive
47	OR13C4 (GeneID 138804)	1	-0.09	inactive
48	RFC1 (GeneID 5981)	1	0.77	inactive
49	RFC1 (GeneID 5981)	1	1.12	inactive
50	RFC1 (GeneID 5981)	1	-0.23	inactive
51	RFC1 (GeneID 5981)	1	-0.17	inactive
52	SZT2 (GeneID 23334)	1	0.03	inactive
53	SZT2 (GeneID 23334)	1	0.51	inactive
54	SZT2 (GeneID 23334)	1	0.15	inactive
55	SZT2 (GeneID 23334)	1	0.1	inactive
56	SZT2 (GeneID 23334)	2	-0.26	inactive
57	SZT2 (GeneID 23334)	2	-1.01	inactive
58	SZT2 (GeneID 23334)	2	-0.21	inactive
59	PEX11A (GeneID 8800)	1	-0.99	inactive
60	PEX11A (GeneID 8800)	1	-0.71	inactive
61	PEX11A (GeneID 8800)	1	-0.59	inactive
62	PEX11A (GeneID 8800)	1	-0.24	inactive
63	ASF1B (GeneID 55723)	1	-0.88	inactive
64	ASF1B (GeneID 55723)	1	-0.58	inactive
65	ASF1B (GeneID 55723)	1	-0.6	inactive
66	ASF1B (GeneID 55723)	1	0.82	inactive
67	LMCD1 (GeneID 29995)	1	-0.57	inactive
68	LMCD1 (GeneID 29995)	1	-0.63	inactive
69	LMCD1 (GeneID 29995)	1	-1.48	inactive
70	LMCD1 (GeneID 29995)	1	-0.89	inactive
71	KCNK1 (GeneID 3775)	1	-0.55	inactive
72	KCNK1 (GeneID 3775)	1	0.4	inactive
73	KCNK1 (GeneID 3775)	1	-0.9	inactive
74	KCNK1 (GeneID 3775)	1	-0.19	inactive
75	DNPEP (GeneID 23549)	1	-0.91	inactive
76	DNPEP (GeneID 23549)	1	-1.57	active
77	DNPEP (GeneID 23549)	1	-0.6	inactive
78	DNPEP (GeneID 23549)	1	2.1	inactive

An excerpt taken from the entries so far:
no.	Target gene	pool no.	TNF reporter robust z-score	call
49	RFC1 (GeneID 5981)	1	1.12	inactive
50	RFC1 (GeneID 5981)	1	-0.23	inactive
51	RFC1 (GeneID 5981)	1	-0.17	inactive
52	SZT2 (GeneID 23334)	1	0.03	inactive
53	SZT2 (GeneID 23334)	1	0.51	inactive
54	SZT2 (GeneID 23334)	1	0.15	inactive
55	SZT2 (GeneID 23334)	1	0.1	inactive
